Literature values in patent US20260240817A1, “COMPOSITIONS AND METHODS FOR TREATING CHARCOT-MARIE-TOOTH DISEASE” (priority 2023, published 2026).
For at least one compound, name, drawing or mass did not settle the structure.

System: CMT2D mouse models
Conditions: CMT2D mouse models (Sleigh et al., 2014; Spaulding et al., 2016); cited from earlier work

CNC(=O)Oc1ccc2c(c1)[C@]1(C)CCN(C)[C@@H]1N2C [physostigmine]
treatment efficacy: treatment efficacy
